Results are given in words; binding and its absence hold for the method and conditions named. Some entries that bind do so weakly or less than the wild type.
B1: ILB512 (peptide)
peptide: MWSAVFQPYQGQAGQGSATGGSSFNEDCMWDPLLMDCAYSPGGSFNEDCMWDPLLMDCAYSP
B2: ILB503 (peptide)
peptide: LAWKQSWIDTGQAGQGSATGGSGSTASSGSGSSFNEDCMWDPLLMDCAYSP
B3: ILB520 (peptide)
peptide: YCPFMPALCVGQAGQGSATGGSGSTASSGSGSSFNEDCMWDPLLMDCAYSP
B4: ILB498 (peptide)
peptide: DGSPGYRAYHSQFGQAGQGSATGGSGSTASSGSGSSFNEDCMWDPLLMDCAYSP

Chains of the proteins cited; added tags and fusions are not shown. Residues count along the entry.
UniProt P05231, residues 30-212: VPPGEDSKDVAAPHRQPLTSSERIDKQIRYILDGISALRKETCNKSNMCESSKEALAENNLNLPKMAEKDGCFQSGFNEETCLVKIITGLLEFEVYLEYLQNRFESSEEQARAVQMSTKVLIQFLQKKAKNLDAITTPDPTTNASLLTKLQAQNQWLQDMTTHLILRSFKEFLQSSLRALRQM

biological target: IL6 (UniProt P05231); assay: MRD identification, Example 48

binding, binds:
ATRMWPMSISGQAGQGSATGGSSFNEDCMWDPLLMDCAYSP [ILB505]
LPLLRFPCDGKQLWKFCL [ILB457]
QWGWSMWQEVGQAGQGSFNEDCMWDPLLMDCAYSP [ILB511]
PDWITWQPAWGQAGQGSFNEDCMWDPLLMDCAYSP [ILB474]
HVGWHAMNPWGQAGQGSFNEDCMWDPLLMDCAYSP [ILB482]
QVSYCPWDPLLMQCQLSG [ILB461]
DWQYYSSKTYGQAGQGSATGGSSFNEDCMWDPLLMDCAYSP [ILB473]
QSPSASHIMGGQAGQGSFNEDCMWDPLLMDCAYSP [ILB479]
VMWQWEEGHWGQAGQGSFNEDCMWDPLLMDCAYSP [ILB486]
GPVEESAPQYGQAGQGSATGGSSFNEDCMWDPLLMDCAYSP [ILB480]
ISDVYQWHSYGQAGQGSFNEDCMWDPLLMDCAYSP [ILB508]
GPDVTQYVKFGQAGQGSFNEDCMWDPLLMDCAYSP [ILB478]
PDWITWQPAWGQAGQGSATGGSSFNEDCMWDPLLMDCAYSP [ILB485]
RWPFCHWDPLLMMCSVSY [ILB455]
MCNPMESECHGQAGQGSATGGSSFNEDCMWDPLLMDCAYSP [ILB493]
LGMTFYVCPWDPLLMLCI [ILB464]
QHQTAFTEMVGQAGQGSFNEDCMWDPLLMDCAYSP [ILB517]
RSIECFWDPLMMECMGYV [ILB463]
VEPIPYTMMRGQAGQGSFNEDCMWDPLLMDCAYSP [ILB491]
B1
WYTHSLQMWGQAGQGSATGGSSFNEDCMWDPLLMDCAYSP [ILB477]
NMYHEHAAWGQAGQGSATGGSSFNEDCMWDPLLMDCAYSP [ILB475]
DNWWRIWDKQGQAGQGSFNEDCMWDPLLMDCAYSP [ILB488]
WPWFEQEHFWGQAGQGSFNEDCMWDPLLMDCAYSP [ILB499]
WCRPTDLKLVKGQAGQGSFNEDCMWDPLLMDCAYSP [ILB500]
B2
DKSGGLVAIQGQAGQGSFNEDCMWDPLLMDCAYSP [ILB501]
B3
MYVMKWQNWTGQAGQGSFNEDCMWDPLLMDCAYSP [ILB506]
QWWWTNSPWLGQAGQGSATGGSSFNEDCMWDPLLMDCAYSP [ILB516]
FFSDCNWDPLLMHCANKL [ILB469]
TQEMWFTGINGQAGQGSATGGSSFNEDCMWDPLLMDCAYSP [ILB487]
LPPPCYWTTWGKECQMFD [ILB490]
QTMWTRWMHDGQAGQGSFNEDCMWDPLLMDCAYSP [ILB518]
YAWHHHVLNTGQAGQGSFNEDCMWDPLLMDCAYSP [ILB519]
VWTAFIQMNSGQAGQGSATGGSSFNEDCMWDPLLMDCAYSP [ILB483]
EVNHVEDFPAGQAGQGSFNEDCMWDPLLMDCAYSP [ILB476]
VTWFMYQDRAGQAGQGSFNEDCMWDPLLMDCAYSP [ILB489]
YYYSWPMCYWDPHMLFCL [ILB465]
RIVVMEQMQIGQAGQGSATGGSSFNEDCMWDPLLMDCAYSP [ILB492]
PCYWDPLLMRCMLQVDNW [ILB467]
NYFNCVWDPLRMDCQYFM [ILB471]
DCEQNQTYCVGQAGQGSFNEDCMWDPLLMDCAYSP [ILB495]
RTYSTPYWGWGQAGQGSFNEDCMWDPLLMDCAYSP [ILB522]
EIFWWLLQWEGQAGQGSATGGSSFNEDCMWDPLLMDCAYSP [ILB523]
WIMSLSWPMAGQAGQGSATGGSGSTASSFNEDCMWDPLLMDCAYSP [ILB481]
DRWGWQKEPSGQAGQGSFNEDCMWDPLLMDCAYSP [ILB502]
WWPNYTWDHPQGSATGGSSFNEDCMWDPLLMDCAYSP [ILB497]
VMLEQMPMMRGQAGQGSATGGSSFNEDCMWDPLLMDCAYSP [ILB504]
MVKLWEIYSWGQAGQGSFNEDCMWDPLLMDCAYSP [ILB509]
HEDKFIVWMWGQAGQGSATGGSSFNEDCMWDPLLMDCAYSP [ILB514]
RPSLVPICYWDPLLMICI [ILB470]
VYWYDVKWTWGQAGQGSFNEDCMWDPLLMDCAYSP [ILB494]
B4
AMHNVMWRAMGQAGQGSFNEDCMWDPLLMDCAYSP [ILB513]

Reference: patent publication US20160046678A1 (ZYNGENIA, published 2016)
